# Results taken from the supplement of paper PMC12889115.
# The other results are listed elsewhere or left out. Values are raw readings; no control value is given beside them.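 First-pass screen: polymyxin B was added at a level that permeabilizes the Salmonella outer membrane while sparing the inner membrane. DMSO wells, with and without polymyxin B, defined maximum growth. Because plates differed from one another, each plate's data were ranked separately and the compounds with the lowest OD600 were carried forward as hits.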
# System: Salmonella enterica serovar Typhimurium SL1344
# Assay: bacterial growth OD600 after 18 h with compound and polymyxin B; higher = more bacterial growth (less inhibition)
# Conditions: 50 µM, Mueller-Hinton broth
smiles,measurement,setting,value
COc1ccc(C(CC(=O)NCc2ccon2)c2ccccc2)cc1 (stereo not given),bacterial growth OD600,polymyxin B 1 µg/mL,0.878
c1coc(CN2CCc3[nH]nc(-c4ccc5c(c4)OCO5)c3C2)c1,bacterial growth OD600,polymyxin B 0.75 µg/mL,0.812
CCC(COC)NC(=O)c1ccc(OC)c(OC2CCN(C(C)=O)CC2)c1 (stereo not given),bacterial growth OD600,polymyxin B 1 µg/mL,0.947
COc1ccc(CCN2CC(NC(=O)C3CC3)CC2=O)cc1 (stereo not given),bacterial growth OD600,polymyxin B 1 µg/mL,0.884
CC1CCN(C(=O)c2cn(CC3COc4ccccc4O3)nn2)CC1 (stereo not given),bacterial growth OD600,polymyxin B 1 µg/mL,0.799
COC1CCCN(c2ccc(C(=O)N3CCC(CCn4cccn4)CC3)cn2)C1 (stereo not given),bacterial growth OD600,polymyxin B 1 µg/mL,0.921
Cc1cccc(NC(=O)CCC2CCN(C(=O)C3CC34CCCCC4)CC2)c1 (stereo not given),bacterial growth OD600,polymyxin B 1 µg/mL,0.009
COCCN1C(=O)CC(CC(=O)N(C)C(C)c2nc(C)cs2)(c2ccccc2OC)C1=O (stereo not given),bacterial growth OD600,polymyxin B 0.75 µg/mL,0.884
COc1ccc(OC2CCN(C3CCCC3)CC2)c(C(=O)NCc2ccncc2C)c1,bacterial growth OD600,polymyxin B 0.75 µg/mL,0.872
O=C(C1CCOCC1)N1CCCC(CCc2cccc(F)c2)C1 (stereo not given),bacterial growth OD600,polymyxin B 0.75 µg/mL,0.701
Cc1nn(C)cc1CN(C)C(=O)c1coc(COc2cccc(F)c2F)n1,bacterial growth OD600,polymyxin B 1 µg/mL,0.937
C=CCO[C@H]1[C@H](NC(=O)COC)c2ccccc2C12CCN(Cc1c(C)nn(C(C)C)c1C)CC2,bacterial growth OD600,polymyxin B 0.75 µg/mL,0.978
Cc1cccc(CN2CCCC(O)(CNCc3ccon3)C2=O)c1 (stereo not given),bacterial growth OD600,polymyxin B 0.75 µg/mL,1
O=C1N(Cc2ccc(F)c(F)c2)CCCC1(O)CNC1CCCCCC1 (stereo not given),bacterial growth OD600,polymyxin B 1 µg/mL,0.413
COCc1ccc(C(=O)Nc2ccc(-c3nc(CNC(=O)c4ccc5c(c4)OCO5)c(C)o3)cc2)o1,bacterial growth OD600,polymyxin B 0.75 µg/mL,0.761
COC(=O)c1c(OCc2ccsc2)cc(=O)n2c1CCN(C(=O)C1Cc3ccccc3O1)CC2 (stereo not given),bacterial growth OD600,polymyxin B 0.75 µg/mL,0.783
CCC(=O)NC1CC(=O)N(Cc2cccc3ccccc23)C1 (stereo not given),bacterial growth OD600,polymyxin B 1 µg/mL,1.01
CCOCC(O)CNC(=O)c1ccc(OC2CCN(CC(C)(C)C)CC2)c(Cl)c1 (stereo not given),bacterial growth OD600,polymyxin B 1 µg/mL,0.863
COc1ccc(CCN(CC2CCN(C)CC2)C(=O)C2CC23CCC3)cc1 (stereo not given),bacterial growth OD600,polymyxin B 1 µg/mL,0.934
Clc1ccc(-c2noc(CN(Cc3ccncc3)CC3CCCO3)n2)cc1 (stereo not given),bacterial growth OD600,polymyxin B 0.75 µg/mL,0.506

# Three compounds out of the list, ordered by SMILES length, rising:
smiles,measurement,setting,value
COc1ccc(CCN2CC(NC(=O)C3CC3)CC2=O)cc1 (stereo not given),bacterial growth OD600,polymyxin B 1 µg/mL,0.884
CCOCC(O)CNC(=O)c1ccc(OC2CCN(CC(C)(C)C)CC2)c(Cl)c1 (stereo not given),bacterial growth OD600,polymyxin B 1 µg/mL,0.863
COCCN1C(=O)CC(CC(=O)N(C)C(C)c2nc(C)cs2)(c2ccccc2OC)C1=O (stereo not given),bacterial growth OD600,polymyxin B 0.75 µg/mL,0.884
